Among the data in PubChem BioAssay AID662 (National Center for Advancing Translational Sciences (NCATS), 2007) are AC50 values, retold here.

The structures appear in SMILES notation. Some of the results follow. Further columns of the screen follow, without active or inactive calls. Compounds called inactive in the main read-out are mostly missing here. Potencies come from curve fits of mixed quality, noted in brackets.

This test is described as follows: Cell signaling CRE-BLA (Fsk stim). The note with it: CHO CRE-bla reporter (cAMP response element driving beta-lactamase), forskolin EC10, beta-lactamase ratio; measured here: 460 nm blue channel. The method, boiled down:
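Titrated compounds plus EC10 NKH 477 on CHO CRE-bla cells, 3 h, 37 °C. CCF4, 2 h RT. Ratio 460/530 nm → AC50.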
As for `Cc1cc(C(=O)OCC(=O)Nc2ccc(F)cc2F)c(C)o1`, the AC50 was 3.98 µM [falling, single point]. Under `COC(=O)c1cc(=O)n(Cc2ccco2)c(=Nc2ccc(F)c(Cl)c2)s1` stands 3.16 µM [falling, full curve].

As for `O=S(=O)(c1ccc(Cl)c(F)c1)N1CCC(c2nc(-c3ccncc3)no2)CC1`, the AC50 was 25.1 µM [falling, single point]. On to `COc1ccc(Oc2ncc3nc(-c4cn(C)c5ccccc45)c(=O)n(C)c3n2)cc1`, for which the AC50 is 5.01 µM [rising, partial curve]. Consider `CCN(C(=O)c1cn(C)c(=O)c2cc(OC)c(OC)cc12)c1cc(C)ccc1C`, for which the AC50 is 6.31 µM [rising, partial curve, poor fit]. Under `O=C1CC(c2ccccc2)Cc2nc(N3CCc4ccccc43)ncc21` (stereo not drawn) stands 12.6 µM [rising, single point]; under `COc1ccc(NC(=O)N2CCN(c3nc(-c4cccc(OC)c4)cs3)CC2)cc1`, 12.6 µM [falling, partial curve]; under `Cc1c(C2N3CC4(C)CN2CC(C)(C3)C4=O)c2ccccc2n1C` (stereo not drawn), 3.16 µM [rising, single point]. For `O=c1c(-c2ccc(F)c(F)c2)nc2cncnc2n1Cc1ccccc1Cl`, the AC50 is 12.6 µM [rising, partial curve]. As for `Cn1c(=O)c2c(nc(NC3CCCCC3)n2Cc2ccccc2)n(C)c1=O`, the concentration at half-maximal activity (AC50) was 12.6 µM [rising, partial curve]. In the case of `C(=C/c1ccccc1)/CN1CCN(C(c2ccccc2)c2ccccc2)CC1`, the AC50 is 12.6 µM [falling, single point].

On to `Cn1c2ccccc2c2ncn(CCC3=CCCCC3)c(=O)c21`, for which the AC50 is 25.1 µM [rising, single point].

Regarding `COCCCNC(=O)c1cc2c(=O)n(C)c3ccccc3c2n1C`, the AC50 was 5.01 µM [rising, partial curve]. Take `CCOC(=O)c1nc(-c2ccccc2)oc1N(C)C`: the AC50 was 10 µM [rising, single point]. `COc1ccccc1C1=Nn2c(nnc2C2CCCCC2)SC1`: the AC50 was 5.01 µM [falling, single point]. With `C=CCSc1nc2c(c(=O)[nH]c(=O)n2C)n1CC`, the AC50 is 10 µM [rising, partial curve].

For `COc1ccc(NC(=O)C2CCN(S(=O)(=O)c3cccc4cccnc34)CC2)cc1OC`, the AC50 was 10 µM [rising, partial curve]. As for `CCC(Sc1nnc(C)s1)C(=O)Nc1nccs1` (stereo not drawn), the AC50 is 12.6 µM [rising, single point].

Turning to `COc1cccc(Nc2ncc3nc(-c4ccccc4)c(=O)n(C)c3n2)c1`, the AC50 is 12.6 µM [rising, partial curve]. Turning to `CCOc1ccccc1C(=O)Nc1ccc(S(=O)(=O)N2CCOCC2)cc1`, the AC50 was 6.31 µM [rising, partial curve].

As for `O=C(C1CC1)N1CCc2cc(S(=O)(=O)N3CCOCC3)ccc21`, the AC50 was 12.6 µM [rising, single point]. For the compound `Cc1noc(/C=C/c2ccco2)c1S(=O)(=O)N1CCC(C(=O)N2c3ccccc3CC2C)CC1` (stereo not drawn), the AC50 is 12.6 µM [falling, single point].

Consider `COc1cc(-c2c(C#N)c(=O)[nH]c3c2c(C)nn3-c2ccccc2)ccc1O`, for which the AC50 is 10 µM [rising, partial curve].

On to `COC(=O)CC1C(=O)NCCN1C(=O)CSc1nnc(Nc2ccc(OC)cc2)s1` (stereo not drawn), for which the AC50 is 0.1 µM [falling, full curve, poor fit]. For the compound `CCCCC/C=C\C[C@H](O)/C=C\c1cccc(C[C@H](O)CCCCO)n1`, the AC50 is 15.8 µM [falling, partial curve].

Consider `COc1ccc(-n2c(=O)c(-c3ccccc3)nc3cnc(N4CCN(C)CC4)nc32)cc1`, for which the AC50 was 10 µM [rising, partial curve]. As for `CCNC(=O)CC1C(=O)N(c2ccc(F)cc2)C(=O)N1CCc1ccc(OC)cc1` (stereo not drawn), the AC50 was 0.0251 µM [falling, full curve, poor fit]. Consider `O=C(NC1CCCC1)c1cc(-c2cccs2)on1`, for which the AC50 is 10 µM [rising, partial curve].

For `CCCn1c(-c2ccc(OC)cc2)nc2nc3ccccc3nc21`, the AC50 was 10 µM [rising, partial curve]. Turning to `CCOC(=O)N1CCC(NC(=O)c2cc(S(=O)(=O)N3CCc4ccccc43)cn2C)CC1`, the concentration at half-maximal activity (AC50) is 0.00316 µM [falling, full curve, poor fit]. Consider `O=C(Cc1ccc(F)cc1)N(c1ccccc1)C1C=CS(=O)(=O)C1` (stereo not drawn), for which the AC50 was 3.98 µM [falling, partial curve]. Then `O=C(CN1C(=O)C2C3C=CC(C3)C2C1=O)Nc1cccc2c1CCCC2` (stereo not drawn), with 1.58 µM [falling, partial curve]; and `Cc1ccc(-c2nnc(CSc3nnc(C)s3)o2)cc1`, with 0.126 µM [falling, single point].

With `CSc1ccc(S(=O)(=O)N2CCN(Cc3ccc4c(c3)OCO4)CC2)cc1`, the AC50 was 12.6 µM [falling, partial curve].

As for `O=C(c1cc2c(=O)oc3ccccc3c2s1)N1CCOCC1`, the AC50 is 0.501 µM [rising, single point]. Under `COc1ccccc1OCc1ccc(C(=O)N2CCN(C(=O)c3ccco3)CC2)cc1` stands 5.01 µM [rising, single point]. Then `CCCCc1n[nH]c2c1C(=O)CC(C)(C)C2`, with 3.16 µM [falling, single point]. Regarding `O=C(c1cc(-c2cccs2)on1)N1CCCCC1`, the concentration at half-maximal activity (AC50) was 0.0501 µM [rising, partial curve, poor fit]. Then `Cc1ccccc1NC(=O)c1c(O)c2cccc3c2n(c1=O)CCC3`, with 20 µM [falling, single point]; and `O=C(NCc1ccc2c(c1)OCO2)C(c1ccco1)N(C(=O)c1csnn1)c1ccccc1` (stereo not drawn), with 5.01 µM [rising, single point]; and `COc1ccc2ccccc2c1C1CC(=O)N2CN(C)CSC2=C1C#N` (stereo not drawn), with 3.16 µM [falling, partial curve]. Then `CCOC(=O)C1CCN(C(=O)c2cc3c(-c4ccc(OC)c(OC)c4)nn(C)c3s2)CC1`, with 2 µM [rising, full curve]; and `Cc1cc(C(=O)Nc2ccc3c(c2)OCO3)cs1`, with 0.00398 µM [falling, full curve, poor fit]. Consider `O=c1n(Cc2ccccc2)c2cc(Cl)cnc2n1Cc1ccccc1`, for which the AC50 is 2.51 µM [rising, single point].

For `O=C(CCc1c[nH]c2ccccc12)NCC1CCCO1` (stereo not drawn), the AC50 is 3.16 µM [falling, single point]. In the case of `Cc1ccc2oc(=O)c3cc(C(=O)NCc4ccco4)sc3c2c1`, the AC50 is 2 µM [rising, full curve].

For the compound `CSc1nc2c(c(-c3ccc(O)cc3)c1C#N)CCC2`, the AC50 was 12.6 µM [rising, partial curve]. Then `CCN(CC)c1ccc(NC(=O)c2cncc(Br)c2)cc1`, with 15.8 µM [falling, partial curve]. Then `CCOC(=O)c1oc2ccccc2c1NC(=O)Cc1cccs1`, with 12.6 µM [falling, partial curve, poor fit]. Regarding `COc1ccc(Oc2ncc3nc(-c4cccs4)c(=O)n(CCC#N)c3n2)cc1`, the AC50 is 12.6 µM [rising, partial curve]. Consider `Cc1cc(NCCN2CCOCC2)n2nc(C)c(-c3ccccc3)c2n1`, for which the AC50 was 15.8 µM [rising, partial curve]. For `O=c1c(-c2cccs2)nc2cncnc2n1Cc1ccccc1`, the AC50 is 6.31 µM [rising, partial curve].

On to `O=C(CC1COc2ccccc2O1)NC1CCCCC1` (stereo not drawn), for which the AC50 was 0.00631 µM [falling, full curve]. In the case of `COC(=O)CN(c1ccc(C)c(Cl)c1)S(C)(=O)=O`, the AC50 was 0.316 µM [rising, partial curve]. Turning to `CCSc1nnc(-c2ccc(Cl)cc2Cl)o1`, the AC50 is 2.51 µM [falling, partial curve, poor fit]. On to `Cc1onc(-c2ccccc2)c1C(=O)Nc1sc2c(c1C#N)CCC(C)C2` (stereo not drawn), for which the AC50 was 2.51 µM [rising, full curve]. `O=C(CC1C(=O)NCCN1C(=O)Nc1ccccc1)Nc1ccc2c(c1)OCCO2` (stereo not drawn): the AC50 was 3.16 µM [falling, single point].

For `CCOC(=O)c1ccc2c(c1)nc(SCC(=O)c1ccco1)n2CC`, the AC50 is 6.31 µM [rising, single point].

For the compound `CC1CN(C(=O)c2cnn3c(C(F)F)cc(-c4ccccc4)nc23)CC(C)O1` (stereo not drawn), the AC50 was 25.1 µM [rising, single point]. For `CCOC(=O)C1CCN(S(=O)(=O)c2cccc(-c3cn4ccccc4n3)c2)CC1`, the AC50 is 12.6 µM [rising, partial curve]. Then `COc1ccc(-c2ccc(-c3noc(C(C)C)n3)c(OC)n2)cc1`, with 7.94 µM [rising, partial curve]; and `O=c1ccc2c(OCCCCc3ccccc3)c3ccoc3cc2o1`, with 15.8 µM [rising, partial curve]. Consider `CCOc1cc(C(=O)NCC(C)CN(C)C)cc(OCC)c1OCC` (stereo not drawn), for which the AC50 is 0.0158 µM [falling, full curve, poor fit]. For the compound `COc1ccc(OC)c(-n2c(N)c(C(=O)NCC3CCCO3)c3nc4ccccc4nc32)c1` (stereo not drawn), the AC50 was 12.6 µM [rising, partial curve]. For `COCCn1c(=O)c(-c2ccc(Cl)cc2)nc2cnc(N3CCOCC3)nc21`, the AC50 is 3.16 µM [rising, partial curve]. For `CCOC(=O)c1c(NC(=O)c2ccco2)sc2c1CCCC2`, the AC50 is 10 µM [rising, partial curve]. Consider `Cc1ccc2nc(-c3cccc(NC(=O)c4ccc5c(c4)OCCO5)c3)oc2c1`, for which the AC50 is 7.94 µM [falling, partial curve]. As for `CC[C@]1(O)C[C@H]2CN(CCc3c([nH]c4ccccc34)[C@](C(=O)OC)(c3cc4c(cc3OC)N(C)[C@@H]3[C@](O)(C(=O)OC)[C@H](OC(C)=O)[C@]5(CC)C=CCN6CC[C@]43[C@@H]65)C2)C1`, the AC50 was 0.501 µM [rising, full curve].
